Source: paper PMC7271195, “CX3CL1 homo-oligomerization drives cell-to-cell adherence” (Scientific Reports, 2020)
No constants are given. Whether binding was seen depends on the method and setting. Some entries that bind do so weakly or less than the wild type. Each block holds one molecule with its values, some of them ahead of it.

Sequences of proteins named here, by UniProt entry; tags and fusion partners are left off. A change or cut given only in a name is not applied to a line headed by its entry.
UniProt P78423: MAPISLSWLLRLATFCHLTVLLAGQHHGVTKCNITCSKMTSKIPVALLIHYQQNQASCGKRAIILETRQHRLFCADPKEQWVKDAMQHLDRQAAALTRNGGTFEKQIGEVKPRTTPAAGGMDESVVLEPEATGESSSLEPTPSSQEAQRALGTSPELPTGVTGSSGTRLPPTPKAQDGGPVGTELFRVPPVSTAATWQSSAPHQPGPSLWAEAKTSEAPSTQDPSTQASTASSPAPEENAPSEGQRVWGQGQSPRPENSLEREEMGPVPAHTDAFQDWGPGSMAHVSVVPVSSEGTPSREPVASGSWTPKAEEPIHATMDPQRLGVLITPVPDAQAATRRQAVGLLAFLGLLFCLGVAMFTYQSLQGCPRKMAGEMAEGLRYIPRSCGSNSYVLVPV
UniProt P49238: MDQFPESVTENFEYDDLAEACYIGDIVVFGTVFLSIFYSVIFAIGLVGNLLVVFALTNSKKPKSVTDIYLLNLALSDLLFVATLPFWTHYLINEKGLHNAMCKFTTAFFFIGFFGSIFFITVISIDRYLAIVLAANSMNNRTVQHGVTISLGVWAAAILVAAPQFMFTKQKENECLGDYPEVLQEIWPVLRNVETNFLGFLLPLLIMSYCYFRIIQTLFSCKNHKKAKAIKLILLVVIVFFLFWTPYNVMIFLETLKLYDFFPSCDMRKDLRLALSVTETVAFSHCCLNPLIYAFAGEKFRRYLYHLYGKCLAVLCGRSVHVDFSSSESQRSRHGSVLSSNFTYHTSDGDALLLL

Key:
[1] = molecular target: CX3CL1-EYFP fusion protein (transiently expressed in COS-7 cells) (UniProt P78423); test: FRAP; CX3CL1-EYFP in live COS-7 cells, 37 °C; diffusion rate with or without 15 min preincubation with 3 or 10 µM TM24 or SCR24
[2] = molecular target: CX3CR1 on CHO cells (CHO_(CX3CR1)) (UniProt P49238); test: LigandTracer (real-time binding of fluorescent ligand to coated cells); 100 nM CX3CL1-AF647 on coated CHO_(CX3CR1) cells in HHBSS, with 5 µM TM24, 1 µM unstained CX3CL1 or none; only the binder purified
[3] = molecular target: CX3CL1-EYFP fusion protein (transiently expressed in COS-7 cells) (UniProt P78423); test: FRAP; synthetic peptide (3 or 10 µM, 15 min preincubation) added to live COS-7 cells expressing CX3CL1-EYFP, 37 °C; diffusion rate of CX3CL1-EYFP; only the binder purified

binding [1]: binds
Molecule: CX3CL1-EYFP fusion protein (transiently expressed in COS-7 cells) (from UniProt P78423 25-397)

binding [2]: binds
Molecule: fluorescent CX3CL1-AF647 (from UniProt P78423 25-341) (ligand)

binding [3]: binds
B1: TM24 peptide (transmembrane domain of CX3CL1 with two lysines at each end) (peptide)
peptide: KKVGLLAFLGLLFCLGVAMFTYKK
notes: two lysines added to ensure solubility; the 20 residues of the TM domain of CX3CL1; also called TM-CX3CL1 peptide; CX3CL1 transmembrane peptide; source: synthetic peptide
